This is one part of the list. Residues, ends and D or L forms follow the SMILES beside them. *: point of attachment. Cbz = O=C(OCc1ccccc1)*
How the values were obtained:
Assay in all cases: log2 fold change, soluble protein after heating vs DMSO (PISA); higher = thermal stabilisation; K562 cells, 10 uM, 30 min; active = over 0.2 and 3.5 SD of the protein, either way, in both replicates (recomputed)
[1] = compound: C/C(=N\NC(=O)C1=CC(=CC=C1)S(=O)(=O)N2CCOCC2)/C3=C(C=CC(=C3)Cl)O
How it was run: (§1)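 Soluble protein was quantified by TMTpro 16plex LC-MS/MS after channel sums were equalised. It was obtained as the supernatant after 21,000xg for 90 min from pooled aliquots of K562 cells (2×10^6 cells/mL, 10 μM compound, 30 min) heated for 3 min across 48°C-58°C and extracted in PBS with 0.5% NP-40 at 4°C. Thermal stability values are relative to control samples and come from duplicates. They are given as log2 fold changes.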

Protein sequences, listed by entry. Tags and fused reporters are not part of them. Lines headed by an entry give the natural chain unless they say otherwise; changes in a name come on top.
UniProt Q8NEY1: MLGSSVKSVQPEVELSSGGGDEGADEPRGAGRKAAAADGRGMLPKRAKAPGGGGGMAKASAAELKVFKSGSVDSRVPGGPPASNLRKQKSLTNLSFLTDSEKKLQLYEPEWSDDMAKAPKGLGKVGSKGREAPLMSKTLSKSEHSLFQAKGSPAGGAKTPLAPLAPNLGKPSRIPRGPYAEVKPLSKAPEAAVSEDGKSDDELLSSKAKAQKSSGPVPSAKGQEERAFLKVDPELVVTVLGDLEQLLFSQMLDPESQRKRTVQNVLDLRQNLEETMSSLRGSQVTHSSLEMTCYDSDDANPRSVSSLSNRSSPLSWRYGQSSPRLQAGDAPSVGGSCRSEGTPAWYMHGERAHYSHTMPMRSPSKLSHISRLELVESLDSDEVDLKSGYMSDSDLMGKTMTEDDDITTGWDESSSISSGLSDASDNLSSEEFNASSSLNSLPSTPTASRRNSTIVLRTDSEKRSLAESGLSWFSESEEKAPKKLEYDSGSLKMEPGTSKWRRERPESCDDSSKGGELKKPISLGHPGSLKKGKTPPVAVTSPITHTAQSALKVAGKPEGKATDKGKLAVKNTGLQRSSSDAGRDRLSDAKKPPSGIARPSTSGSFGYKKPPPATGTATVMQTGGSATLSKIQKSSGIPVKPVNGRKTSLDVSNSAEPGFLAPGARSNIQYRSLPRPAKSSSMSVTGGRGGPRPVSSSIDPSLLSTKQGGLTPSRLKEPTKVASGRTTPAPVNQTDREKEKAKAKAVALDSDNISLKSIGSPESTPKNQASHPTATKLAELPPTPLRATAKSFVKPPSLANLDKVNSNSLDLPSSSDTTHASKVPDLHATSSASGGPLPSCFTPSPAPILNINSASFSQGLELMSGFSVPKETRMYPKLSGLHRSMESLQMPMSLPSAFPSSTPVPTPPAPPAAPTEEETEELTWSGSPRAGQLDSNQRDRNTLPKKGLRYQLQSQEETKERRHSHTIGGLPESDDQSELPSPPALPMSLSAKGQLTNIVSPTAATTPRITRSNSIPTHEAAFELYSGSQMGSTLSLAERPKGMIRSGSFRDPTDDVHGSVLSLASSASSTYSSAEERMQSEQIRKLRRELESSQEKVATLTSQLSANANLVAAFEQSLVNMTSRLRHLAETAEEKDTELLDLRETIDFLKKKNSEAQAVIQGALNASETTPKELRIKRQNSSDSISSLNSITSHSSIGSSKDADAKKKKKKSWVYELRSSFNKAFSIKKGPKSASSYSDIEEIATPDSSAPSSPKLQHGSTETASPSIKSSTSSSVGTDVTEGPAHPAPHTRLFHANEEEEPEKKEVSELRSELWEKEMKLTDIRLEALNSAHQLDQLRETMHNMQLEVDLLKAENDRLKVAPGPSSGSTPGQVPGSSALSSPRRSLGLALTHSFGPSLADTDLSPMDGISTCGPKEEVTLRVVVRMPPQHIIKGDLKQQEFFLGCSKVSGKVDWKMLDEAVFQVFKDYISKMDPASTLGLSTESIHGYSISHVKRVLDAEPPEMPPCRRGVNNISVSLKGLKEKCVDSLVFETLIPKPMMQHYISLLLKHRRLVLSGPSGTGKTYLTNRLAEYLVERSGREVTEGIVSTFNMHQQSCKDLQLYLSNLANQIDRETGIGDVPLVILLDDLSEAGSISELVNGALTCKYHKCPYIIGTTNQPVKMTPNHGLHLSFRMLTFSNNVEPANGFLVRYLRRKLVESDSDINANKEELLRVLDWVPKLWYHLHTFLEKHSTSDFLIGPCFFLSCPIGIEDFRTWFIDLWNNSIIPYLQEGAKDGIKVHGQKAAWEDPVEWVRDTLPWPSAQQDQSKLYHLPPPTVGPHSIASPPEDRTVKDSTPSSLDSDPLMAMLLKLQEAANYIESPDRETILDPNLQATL
UniProt Q02083: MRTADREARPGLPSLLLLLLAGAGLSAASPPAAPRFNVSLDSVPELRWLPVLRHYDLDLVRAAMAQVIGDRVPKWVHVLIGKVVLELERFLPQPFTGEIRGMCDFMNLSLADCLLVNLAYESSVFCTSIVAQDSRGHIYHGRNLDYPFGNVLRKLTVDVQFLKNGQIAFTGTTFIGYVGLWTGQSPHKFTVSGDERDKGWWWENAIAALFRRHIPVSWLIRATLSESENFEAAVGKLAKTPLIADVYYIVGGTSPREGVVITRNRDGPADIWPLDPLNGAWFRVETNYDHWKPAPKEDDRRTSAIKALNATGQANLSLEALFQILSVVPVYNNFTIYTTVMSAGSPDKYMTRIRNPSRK
NA, A0A494C071, UniProt A0A494C071, whole entry, looked up: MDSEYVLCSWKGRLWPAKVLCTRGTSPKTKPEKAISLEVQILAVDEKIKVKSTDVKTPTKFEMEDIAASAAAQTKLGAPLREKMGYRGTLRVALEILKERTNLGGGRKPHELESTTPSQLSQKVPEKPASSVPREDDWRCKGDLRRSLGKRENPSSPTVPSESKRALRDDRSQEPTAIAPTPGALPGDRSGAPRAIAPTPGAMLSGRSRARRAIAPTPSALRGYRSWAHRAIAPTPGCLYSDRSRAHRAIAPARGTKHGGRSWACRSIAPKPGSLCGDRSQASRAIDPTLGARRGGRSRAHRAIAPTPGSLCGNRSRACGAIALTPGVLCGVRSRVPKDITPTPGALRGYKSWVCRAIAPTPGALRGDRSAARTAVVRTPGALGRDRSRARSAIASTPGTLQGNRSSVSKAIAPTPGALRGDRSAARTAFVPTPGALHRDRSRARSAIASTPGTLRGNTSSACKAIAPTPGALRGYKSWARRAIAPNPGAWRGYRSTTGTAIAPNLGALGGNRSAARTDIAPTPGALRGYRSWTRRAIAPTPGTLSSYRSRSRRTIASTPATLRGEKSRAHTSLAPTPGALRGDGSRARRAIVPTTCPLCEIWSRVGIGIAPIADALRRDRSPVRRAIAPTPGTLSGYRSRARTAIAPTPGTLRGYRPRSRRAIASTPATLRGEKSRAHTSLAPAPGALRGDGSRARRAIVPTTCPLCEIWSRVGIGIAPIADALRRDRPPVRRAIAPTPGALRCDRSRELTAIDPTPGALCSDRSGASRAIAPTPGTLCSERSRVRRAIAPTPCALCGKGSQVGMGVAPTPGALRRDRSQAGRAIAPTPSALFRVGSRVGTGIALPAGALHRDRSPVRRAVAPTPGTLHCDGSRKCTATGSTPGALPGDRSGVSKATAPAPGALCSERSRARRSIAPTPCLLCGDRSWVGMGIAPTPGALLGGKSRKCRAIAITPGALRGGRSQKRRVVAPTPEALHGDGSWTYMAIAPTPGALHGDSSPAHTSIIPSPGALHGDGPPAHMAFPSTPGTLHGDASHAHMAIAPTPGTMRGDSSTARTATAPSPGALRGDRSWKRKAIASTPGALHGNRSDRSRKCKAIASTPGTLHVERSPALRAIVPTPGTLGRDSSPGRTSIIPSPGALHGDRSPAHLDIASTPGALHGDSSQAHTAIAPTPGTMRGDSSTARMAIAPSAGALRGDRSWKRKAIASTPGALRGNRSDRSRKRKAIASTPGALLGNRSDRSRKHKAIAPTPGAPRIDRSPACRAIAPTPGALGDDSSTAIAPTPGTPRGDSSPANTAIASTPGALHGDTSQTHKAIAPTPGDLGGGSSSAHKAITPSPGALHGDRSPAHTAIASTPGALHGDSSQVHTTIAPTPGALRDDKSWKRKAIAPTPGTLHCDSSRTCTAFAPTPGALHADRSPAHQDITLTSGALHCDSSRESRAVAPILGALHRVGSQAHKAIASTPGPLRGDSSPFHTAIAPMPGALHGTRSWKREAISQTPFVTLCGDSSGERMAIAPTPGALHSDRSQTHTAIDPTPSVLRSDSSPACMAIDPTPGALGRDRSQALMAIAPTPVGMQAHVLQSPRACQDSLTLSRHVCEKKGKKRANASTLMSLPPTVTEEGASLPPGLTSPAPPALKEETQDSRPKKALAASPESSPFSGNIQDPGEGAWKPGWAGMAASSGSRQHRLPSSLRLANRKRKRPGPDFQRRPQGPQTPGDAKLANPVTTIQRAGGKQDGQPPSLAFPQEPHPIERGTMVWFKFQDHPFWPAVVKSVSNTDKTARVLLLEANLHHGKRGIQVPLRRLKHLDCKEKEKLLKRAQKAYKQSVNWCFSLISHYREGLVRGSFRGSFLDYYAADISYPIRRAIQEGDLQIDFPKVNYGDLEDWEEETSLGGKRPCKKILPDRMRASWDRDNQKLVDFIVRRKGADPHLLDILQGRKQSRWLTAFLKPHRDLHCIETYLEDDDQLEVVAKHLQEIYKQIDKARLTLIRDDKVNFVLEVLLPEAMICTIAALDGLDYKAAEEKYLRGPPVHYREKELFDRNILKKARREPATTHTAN
UniProt O43677, whole entry, looked up: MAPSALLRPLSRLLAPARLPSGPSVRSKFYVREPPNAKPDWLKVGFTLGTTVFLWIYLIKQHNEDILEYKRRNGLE
UniProt Q6ZVX7: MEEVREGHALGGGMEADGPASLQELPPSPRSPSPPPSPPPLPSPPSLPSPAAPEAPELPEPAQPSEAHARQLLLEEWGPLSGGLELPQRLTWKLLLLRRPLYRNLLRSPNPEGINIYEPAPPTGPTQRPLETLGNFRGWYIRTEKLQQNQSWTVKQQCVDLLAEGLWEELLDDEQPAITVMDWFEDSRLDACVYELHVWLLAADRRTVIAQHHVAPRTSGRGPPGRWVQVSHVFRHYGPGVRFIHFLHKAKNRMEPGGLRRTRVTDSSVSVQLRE
UniProt Q6IBW4: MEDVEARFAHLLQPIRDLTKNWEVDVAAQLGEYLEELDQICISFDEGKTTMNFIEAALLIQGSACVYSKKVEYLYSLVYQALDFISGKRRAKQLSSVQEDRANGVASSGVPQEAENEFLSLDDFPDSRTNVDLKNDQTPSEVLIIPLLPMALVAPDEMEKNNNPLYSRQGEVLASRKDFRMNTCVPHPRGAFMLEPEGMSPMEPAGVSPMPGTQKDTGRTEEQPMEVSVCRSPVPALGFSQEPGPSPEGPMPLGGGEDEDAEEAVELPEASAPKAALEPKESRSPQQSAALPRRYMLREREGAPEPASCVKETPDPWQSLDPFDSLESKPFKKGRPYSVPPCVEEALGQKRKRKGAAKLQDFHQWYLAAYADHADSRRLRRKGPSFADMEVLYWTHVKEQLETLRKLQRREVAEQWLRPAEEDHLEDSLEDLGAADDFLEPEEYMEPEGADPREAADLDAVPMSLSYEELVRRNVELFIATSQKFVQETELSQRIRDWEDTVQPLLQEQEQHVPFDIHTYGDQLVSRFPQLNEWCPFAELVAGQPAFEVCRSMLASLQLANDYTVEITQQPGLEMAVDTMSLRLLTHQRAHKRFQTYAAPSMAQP
UniProt Q96PY6: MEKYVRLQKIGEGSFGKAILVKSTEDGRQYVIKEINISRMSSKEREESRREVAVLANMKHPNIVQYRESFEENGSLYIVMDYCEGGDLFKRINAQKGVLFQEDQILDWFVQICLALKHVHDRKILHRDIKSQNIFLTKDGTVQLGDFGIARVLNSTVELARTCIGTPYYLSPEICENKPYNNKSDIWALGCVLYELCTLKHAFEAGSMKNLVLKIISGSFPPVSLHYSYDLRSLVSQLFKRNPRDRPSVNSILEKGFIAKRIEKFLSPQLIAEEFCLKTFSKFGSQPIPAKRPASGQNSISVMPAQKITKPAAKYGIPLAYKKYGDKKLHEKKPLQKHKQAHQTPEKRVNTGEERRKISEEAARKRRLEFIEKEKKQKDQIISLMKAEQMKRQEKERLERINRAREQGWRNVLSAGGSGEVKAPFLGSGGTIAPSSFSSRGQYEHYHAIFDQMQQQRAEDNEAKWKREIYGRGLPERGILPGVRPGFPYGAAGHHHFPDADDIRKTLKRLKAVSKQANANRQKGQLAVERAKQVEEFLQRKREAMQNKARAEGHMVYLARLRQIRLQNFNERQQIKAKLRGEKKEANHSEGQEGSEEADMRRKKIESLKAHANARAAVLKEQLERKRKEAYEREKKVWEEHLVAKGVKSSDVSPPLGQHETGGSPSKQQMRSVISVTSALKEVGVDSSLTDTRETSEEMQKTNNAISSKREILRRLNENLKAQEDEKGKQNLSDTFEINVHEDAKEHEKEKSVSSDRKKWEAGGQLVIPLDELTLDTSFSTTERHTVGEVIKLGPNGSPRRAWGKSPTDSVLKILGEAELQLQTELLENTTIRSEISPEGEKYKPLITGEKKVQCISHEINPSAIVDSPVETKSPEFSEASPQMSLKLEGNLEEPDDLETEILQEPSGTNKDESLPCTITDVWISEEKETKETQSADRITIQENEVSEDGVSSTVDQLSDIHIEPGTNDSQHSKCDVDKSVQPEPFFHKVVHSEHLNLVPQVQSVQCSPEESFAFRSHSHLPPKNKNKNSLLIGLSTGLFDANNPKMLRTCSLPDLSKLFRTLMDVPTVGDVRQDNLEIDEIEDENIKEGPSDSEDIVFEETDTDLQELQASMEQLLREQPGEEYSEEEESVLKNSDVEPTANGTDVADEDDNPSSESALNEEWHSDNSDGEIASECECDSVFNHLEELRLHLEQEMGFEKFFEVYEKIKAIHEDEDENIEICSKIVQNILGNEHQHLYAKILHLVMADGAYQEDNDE

[2] = compound: C1=CC2=C(C=CC(=C2)/C=C\3/C(=O)NC(=NCC4=CC=CS4)S3)N=C1
How it was run: as §1

[3] = compound: C1=CC=C2C(=C1)C3=NNC4=CC=CC(=C43)C2=O
How it was run: as §1

[4] = compound: CC(=O)c1cnc2ccc(-c3cc(Cl)c(O)c(Cl)c3)nc2c1N[C@H]1CC[C@H](CN(C)C)CC1
How it was run: as §1

erlotinib = compound: C#Cc1cccc(Nc2ncnc3cc(OCCOC)c(OCCOC)cc23)c1 [erlotinib]
How it was run: as §1

[5] = compound: C1=CC(=CC=C1C2=NC3=C(N2)C=C(C=C3)C(=O)N)OC4=CC=C(C=C4)Cl
How it was run: as §1

[6] = compound: CC(C)C1=C2N=C(C=C(N2N=C1)NCC3=CC=CC=C3)NCCCCCCN
How it was run: as §1

[7] = compound: C1=CC2=NC=CN=C2C=C1/C=C/3\C(=O)NC(=O)S3
How it was run: as §1

[8] = compound: C1=CC=C(C=C1)C2=NC(=C(N2)C3=CC=NC=C3)C4=CC(=C(C=C4)Cl)O
How it was run: as §1

[9] = compound: C1CCN(C1)C(=O)NC2=CC=CC(=C2)NC3=NC=C(C(=N3)NCCC4=CN=CN4)Br
How it was run: as §1

[10] = compound: C1CN(CCC1(CC2=CC=C(C=C2)Cl)N)C3=NC=NC4=C3C=CN4
How it was run: as §1

ibrutinib = compound: C=CC(=O)N1CCC[C@@H](n2nc(-c3ccc(Oc4ccccc4)cc3)c3c(N)ncnc32)C1 [ibrutinib]
How it was run: as §1

ralimetinib = compound: CC(C)(C)Cn1c(N)nc2ccc(-c3[nH]c(C(C)(C)C)nc3-c3ccc(F)cc3)nc21 [ralimetinib]
How it was run: as §1

[11] = compound: CC(C)C[C@@H](C=O)NC(=O)[C@H](CC(C)C)NC(=O)[C@H](CC(C)C)NC(=O)OCc1ccccc1
How it was run: as §1

[12] = compound: CC1=C(C2=C(C=C1)C(=O)C3=CC=CC=C3N2CCCN)C
How it was run: as §1

[13] = compound: C1=CC(=C(C=C1Cl)C2=NC3=NC=CN=C3C(=N2)NC4=CC=NC=C4)F
How it was run: as §1

IRAK-1-4 Inhibitor I = compound: C1COCCN1CCN2C3=CC=CC=C3N=C2NC(=O)C4=CC(=CC=C4)[N+](=O)[O-] [IRAK-1-4 Inhibitor I]
How it was run: as §1

[14] = compound: CC(C)(O)CC(=O)NCCn1ccc2ncnc(Nc3ccc(Oc4cccc(C(F)(F)F)c4)c(Cl)c3)c21
How it was run: as §1

pinometostat = compound: CC(C)N(C[C@H]1O[C@@H](n2cnc3c(N)ncnc32)[C@H](O)[C@@H]1O)[C@H]1C[C@@H](CCc2nc3cc(C(C)(C)C)ccc3[nH]2)C1 [pinometostat]
How it was run: as §1

[15] = compound: CC1=C(C(CC(=O)N1)C2=CC=C(C=C2)C(F)(F)F)C(=O)NC3=C(C=C4C(=C3)C=NN4)F
How it was run: as §1

Measured: log2 fold change

MYOF (UniProt Q9NZM1)
inactive: [1] 0.08 | [2] 0.196 | [3] 0.224 | [4] 0.037

NDRG1 (UniProt Q92597)
inactive: erlotinib 0.152 | [5] 0.019 | [6] -0.014

NCBP2AS2 (UniProt Q69YL0)
inactive: erlotinib 0.033 | [1] 0.104 | [5] 0.054 | [2] 0 | [7] 0.106 | [8] -0.029 | [3] 0.148 | [9] 0.048 | [10] 0.113 | ibrutinib 0.07 | [4] 0.21 | ralimetinib -0.01 | [11] 0.026 | [12] -0.008
active: [6] -0.869

NCKIPSD (UniProt Q9NZQ3)
inactive: erlotinib 0.043 | [1] 0.118 | [5] 0.439 | [2] 0.199 | [8] 0.023 | [3] -0.111 | [4] 0.065 | ralimetinib 0.098 | [6] -0.169 | [11] 0.113

NAV1 (UniProt Q8NEY1)
inactive: erlotinib 0.153 | [1] 0.052 | [13] -0.096 | [5] 0.029 | [2] 0.051 | [8] -0.103 | [3] -0.053 | [9] -0.072 | [10] 0.304 | IRAK-1-4 Inhibitor I -0.097 | [4] -0.569 | ralimetinib 0.154 | [14] -0.087 | [6] -0.337 | [11] 0.141 | pinometostat 0.202 | [15] -0.126 | [12] -0.112

NAAA (UniProt Q02083)
inactive: erlotinib 0.084 | [5] -0.044 | [8] -0.096 | IRAK-1-4 Inhibitor I 0.049 | ralimetinib 0.014 | [6] 0.043 | [11] 0.04 | pinometostat -0.105 | [15] 0.09

NDRG2 (UniProt G3V392)
inactive: [13] 0.063 | [7] -0.2 | IRAK-1-4 Inhibitor I 0.024 | ibrutinib -0.073 | [14] -0.036 | pinometostat -0.006

NA, A0A494C071
inactive: [1] 0 | [13] 0.197 | [2] -0.005 | [7] 0.079 | [3] -0.018 | [9] 0.136 | [10] 0.114 | IRAK-1-4 Inhibitor I -0.011 | ibrutinib -0.1 | [4] -0.038 | [14] 0.03 | pinometostat -0.034 | [12] -0.141

NATD1 (UniProt Q8N6N6)
inactive: [1] 0.071 | [2] -0.021 | [3] 0.052 | [4] -0.02 | [15] 0.047

NDUFC1 (UniProt O43677)
inactive: erlotinib -0.037 | [1] -0.009 | [13] 0.166 | [5] 0.15 | [2] -0.072 | [3] 0.115 | [4] 0.024 | [14] -0.044 | [6] 0.038

NDRG2 (UniProt G3V2A6)
inactive: erlotinib 0.009 | [5] -0.026 | [6] 0.19

NCOA5 (UniProt Q9HCD5)
inactive: erlotinib -0.057 | [5] 0.156 | [8] -0.094 | IRAK-1-4 Inhibitor I -0.136 | ralimetinib -0.012 | [6] -0.194 | [11] 0.055 | pinometostat 0.048

NCCRP1 (UniProt Q6ZVX7)
inactive: [1] -0.216 | [13] -0.02 | [2] 0.29 | [3] -0.291 | IRAK-1-4 Inhibitor I -0.311 | [4] -0.358 | [14] 0.309 | pinometostat -0.12

NA, A0A2R8Y3M9
inactive: [1] -0.335 | [2] 0.355 | [7] 0.132 | [8] -0.072 | [3] -0.137 | IRAK-1-4 Inhibitor I 0.087 | ibrutinib 0.215 | [4] -0.207 | ralimetinib -0.08 | [11] 0.056 | pinometostat -0.001

NAIP (UniProt Q13075)
inactive: erlotinib 0.246 | [5] -0.039 | [8] -0.449 | IRAK-1-4 Inhibitor I 0.042 | ralimetinib -0.451 | [6] 0.001 | [11] 0.236 | pinometostat 0.053

NDUFA7 (UniProt M0R0N0)
inactive: erlotinib 0.101 | [5] -0.051 | [7] 0.015 | ibrutinib -0.109 | [6] -0.136

NAP1L1 (UniProt B7Z9C2)
inactive: erlotinib 1.01 | [1] 0.122 | [5] -0.051 | [2] 0.156 | [7] 0.175 | [3] -0.178 | IRAK-1-4 Inhibitor I -0.147 | ibrutinib -0.04 | [4] -0.058 | [6] 0.359 | pinometostat -0.052

NA isoform 3 (UniProt Q4G0T1)
inactive: erlotinib 0.019 | [1] 0 | [5] 0.01 | [2] 0.11 | [7] -0.035 | [8] 0.014 | [3] 0.047 | [9] 0.058 | [10] 0.071 | IRAK-1-4 Inhibitor I 0.007 | ibrutinib -0.1 | [4] -0.146 | ralimetinib -0.118 | [6] -0.022 | [11] 0.155 | pinometostat -0.043 | [12] -0.109

NA, A0A1W2PSA9
inactive: [1] -0.065 | [2] -0.111 | [8] -0.008 | [3] -0.104 | [9] 0.101 | [10] -0.086 | [4] -0.13 | ralimetinib 0.004 | [11] 0.122 | [12] -0.27

NAMPT (UniProt C9JF35)
inactive: erlotinib 0.205 | [13] 0.084 | [5] -0.004 | [7] 0.122 | [8] 0.088 | [9] 0.104 | [10] -0.051 | IRAK-1-4 Inhibitor I -0.099 | ibrutinib -0.058 | ralimetinib -0.054 | [14] -0.046 | [6] -0.07 | [11] -0.125 | pinometostat -0.148 | [15] 0.075 | [12] -0.023

NCOA3 (UniProt Q9Y6Q9)
inactive: erlotinib 0.168 | [13] -0.251 | [5] -0.095 | [7] -0.166 | [8] -0.045 | [9] -0.144 | [10] 0.076 | IRAK-1-4 Inhibitor I -0.029 | ibrutinib -0.048 | ralimetinib -0.049 | [14] 0.055 | [6] -0.202 | [11] 0.045 | pinometostat -0.145 | [15] 0.035 | [12] 0.132

NCK2 (UniProt O43639)
inactive: [1] 0.026 | [13] 0.085 | [2] 0.117 | [7] -0.055 | [8] -0.08 | [3] -0.054 | [9] -0.305 | [10] 0.134 | IRAK-1-4 Inhibitor I -0.123 | ibrutinib 0.213 | [4] -0.188 | ralimetinib -0.226 | [14] -0.092 | [11] 0.275 | pinometostat 0.088 | [15] 0.013 | [12] 0.272

Looked up one by one from the list above (two):
NA, A0A2R8Y3M9
inactive: [1] -0.335 | [2] 0.355 | [7] 0.132 | [8] -0.072 | [3] -0.137 | IRAK-1-4 Inhibitor I 0.087 | ibrutinib 0.215 | [4] -0.207 | ralimetinib -0.08 | [11] 0.056 | pinometostat -0.001

NCOA3 (UniProt Q9Y6Q9)
inactive: erlotinib 0.168 | [13] -0.251 | [5] -0.095 | [7] -0.166 | [8] -0.045 | [9] -0.144 | [10] 0.076 | IRAK-1-4 Inhibitor I -0.029 | ibrutinib -0.048 | ralimetinib -0.049 | [14] 0.055 | [6] -0.202 | [11] 0.045 | pinometostat -0.145 | [15] 0.035 | [12] 0.132

Carrying on.

NCKAP5L (UniProt Q9HCH0)
inactive: [8] -0.077 | IRAK-1-4 Inhibitor I -0.106 | ralimetinib 0.217 | [11] 0.129 | pinometostat 0.077

NDC80 (UniProt O14777)
inactive: erlotinib 0.075 | [1] -0.017 | [13] -0.234 | [5] -0.012 | [2] 0.062 | [8] -0.01 | [3] -0.06 | [9] 0.023 | [10] -0.078 | IRAK-1-4 Inhibitor I -0.247 | [4] 0.049 | ralimetinib 0.209 | [14] 0.052 | [6] -0.212 | [11] 0.215 | pinometostat 0.35 | [15] -0.096 | [12] 0.048

NA (UniProt B2RBV5)
inactive: [13] -0.068 | [7] -0.015 | ibrutinib 0.069 | [14] -0.037

NDFIP2 (UniProt Q9NV92)
inactive: erlotinib -0.307 | [5] 0.009 | [8] -0.19 | [9] -0.095 | [10] 0.086 | ralimetinib 0.147 | [6] -0.069 | [11] -0.229 | [12] 0.119

NDUFV1 (UniProt E9PJL9)
inactive: [1] -0.257 | [2] 0.009 | [7] 0.174 | [3] -0.088 | [9] 0.045 | [10] -0.192 | IRAK-1-4 Inhibitor I -0.104 | ibrutinib -0.252 | [4] 0.075 | pinometostat 0.016 | [15] 0.042 | [12] 0.07

NBEAL2 (UniProt Q6ZNJ1)
inactive: erlotinib -0.011 | [5] 0.04 | [8] -0.06 | IRAK-1-4 Inhibitor I 0 | ralimetinib 0.168 | [6] -0.153 | [11] 0.272 | pinometostat -0.055

NAA40 (UniProt Q86UY6)
inactive: [13] -0.47 | [8] -0.177 | [9] -0.097 | [10] -0.08 | IRAK-1-4 Inhibitor I -0.154 | ralimetinib 0.041 | [14] 0.221 | [11] 0.01 | pinometostat 0.194 | [12] -0.338

NCAPH2 isoform 4 (UniProt Q6IBW4)
inactive: erlotinib -0.055 | [1] 0.057 | [13] -0.061 | [5] -0.159 | [2] -0.109 | [3] 0.011 | IRAK-1-4 Inhibitor I -0.26 | [4] -0.161 | [14] -0.026 | [6] -0.22 | pinometostat 0.218 | [15] -0.218

NEK1 isoform 3 (UniProt Q96PY6)
inactive: erlotinib 0.153 | [1] 0.175 | [5] -0.022 | [2] -0.041 | [8] -0.065 | [3] 0.047 | IRAK-1-4 Inhibitor I -0.048 | [4] -0.295 | ralimetinib 0.029 | [6] -0.141 | [11] 0 | pinometostat 0.169

NCOA4 isoform 4 (UniProt Q13772)
inactive: [8] -0.076 | ralimetinib 0.463 | [11] 0.692
